Results are given in words; binding and its absence hold for the method and conditions named. In cells and extracts the contact can be indirect. Binding calls can cover weak binding; strength is not graded here. Tags and fused reporters may be left off the sequences shown.
Target: T1, FLAG-SH3BGRL3 (SH3 Domain Binding Glutamate Rich Protein Like 3), expressed in SKBR3 cells (human) (UniProt Q9H299)
T1 sequence: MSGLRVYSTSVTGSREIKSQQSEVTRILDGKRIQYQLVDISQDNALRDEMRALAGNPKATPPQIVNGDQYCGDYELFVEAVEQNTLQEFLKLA
Experiment: co-IP; SKBR3 cells transfected or co-transfected; lysate in EB buffer on anti-FLAG M2 Affinity gel resin overnight at 4 °C, 5 washes with EB buffer, elution with 10% SDS, western blot (anti-Myo1c, anti-ErbB2 or anti-HA)

Substance: Myo1c NECK+TAIL, HA-tagged (domain or fragment)
- binding: binds

Substance: Myo1c TAIL, HA-tagged (domain or fragment)
- binding: no binding

From PMC8356473
